Measurements published in US20250346616A1 (DIZAL (JIANGSU) PHARMACEUTICAL CO., LTD., priority 2022, published 2025).

System: HepG2 cells
Experiment: Cell-based phospholipidosis assay (LipidTOX Red)
Settings: Homo sapiens, 24 h, LipidTOX Red dye
Method: HepG2 cells were dispensed into Collagen I-coated 96-well black wall/clear bottom assay plates at 5000 cells/90 μL/well.
The assay plates were incubated at 37° C. for 4 h to allow the cells to attach to wells, followed by addition of 30 μL of 1:250 LipidTOX Red dye (1:1000 final, then 120 nL Test compounds were added for the final concentration (50 uM start, 3-fold dilution, 8 doses, in duplicate). The 20 uM of Amiodarone and DMSO (0.1% final) were used for maximum and minimum control.
The assay plates were then incubated at 37° C. for 24 h, […] of 8% paraformaldehyde (4% final) fixative solution containing 8 μg/ml Hoechst 33342 (4 ug/mL final) in DPBS was added to each well. After incubation at room temperature for 25 min, the assay plates were washed with DPBS. The assay plates were sealed and stored at 4° C. before imaging.
The fluorescence intensities (595 nm excitation, 615 nm emission for LipidTOX Red; 352 nm excitation, 461 nm emission for Hoechst 33342) were measured using an High Content Screening System (Operetta, PerkinElmer) with a 10×Fluor objective. Images were acquired for 4 fields in each well and analyzed with the software. Average intensities were subjected to Prism and EC50 were calculated. The present disclosure provided compounds that are potent ROCK1 and ROCK2 inhibitors without liability of inducing phospholipidosis.

CCCCc1oc2ccccc2c1C(=O)c1cc(I)c(OCCN(CC)CC)c(I)c1 [Amiodarone, reference compound]
EC50: 1.37 µM
